# In patent US20210369677A1, “SMALL MOLECULE ACTIVATORS OF POLYCYSTIN-2 (PKD2) AND USES THEREOF” (Northwestern University, priority 2020, published 2021):
# Tested on: human PKD2 channel proteins (WT or C331S)
# Experiment: Thermal stability assay (FSEC) of purified PKD2 channel proteins
# Settings: presence or absence of NS1643
# Method: Thermal stability assay. Approximately 9 μg of purified human PKD2 channel proteins (WT or C331S) in 30 μl buffer composed of 20 mM HEPES 150 mM NaCl, 2 mM CaCl2), 0.5 mM TCEP and 0.5 mM DDM (n-Dodecyl β-D-maltoside), at pH 7.4, were incubated at 4° C.-90° C. (4° C., room temperature, 30° C., 35.2° C., 39.3° C., 44.9° C., 49° C., 54° C., 60° C., 65.5° C., 69.4° C., 75° C., 79.3° C., 84° C., and 90° C.) for 10 minutes in a thermal cycler. To reduce the C331-C344 disulfide bond in the PKD2 channel, 10 mM GSH was added to all the buffers during purification and thermal stability assay. The treated channel samples were then diluted 10 times with the same buffer followed by centrifugation for 30 min at 40,000 rpm. 30 μl of each cleared channel samples were separated on an analytical size exclusion column (Superose™ 6 5/150 GL, GE Healthcare) at 0.3 ml/min flow rate. Proteins were detected by Tryptophan fluorescence. The FSEC-based thermostability experiments were performed in triplicates for each temperature point. The integrated area of the channel tetramer peak at different temperature points is normalized to that at 4° C. to generate the thermal stability plot.
# We tested the thermal stability of PKD2 and the C331S variant in the presence or absence of NS1643. (See FIG. 33). We also performed Rosetta modeling. (See FIG. 35).
smiles,measurement,value
"O=C(Nc1cc(C(F)(F)F)ccc1O)Nc1cc(C(F)(F)F)ccc1O [NS1643, 1,3-bis[2-hydroxy-5-(trifluoromethyl)phenyl]urea]",Thermal stability of PKD2 and C331S in the presence of compound,stabilizes the structure of PKD2
